PubChem BioAssay AID602196 – INSERM | 2012
Aim: 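Knock-downs that protect lung cancer cells from cisplatin or sensitise them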. System: human A549 lung cancer cells. Knock-down reagent: siRNA pair against human genes. Time to read-out: 48 h transfection before cisplatin; time from cisplatin to read-out not stated. Treatment: cisplatin at a dose killing half of control-siRNA cells; exact dose and duration not given. Read-out: 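Cisplatin cell death as a shift from the 50% death seen with control siRNA; siRNAs toxic or growth-blocking alone scored 0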. Direction: two-siRNA summed score (-2 to +2): higher = both siRNAs protect from cisplatin killing; -2 means both sensitise. Hit rule: 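Each siRNA scores 0 if harmful alone by LDH or WST-1, otherwise +1 if it reduces and -1 if it increases cisplatin killing; a gene is active when both siRNAs agree (sum +2 or -2)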. Meaning of the calls: active = both siRNAs shift cisplatin killing the same way; inactive = no consistent shift, or siRNA harmful alone.
The deposit covers about 23,000 reagents; this is a random part of them. Over the whole deposit, 455 (2%) are marked active. 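Active includes both protection and sensitisation; some change values fall well beyond the stated -50 to +50 range.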 A number with no mark means an inactive call. The numbers tell different reagents against one gene apart. Further read-outs or replicates are left out here. The record does not give: the amount of reagent.

| gene | reagent no. | two-siRNA summed score (-2 to +2) |
| --- | --- | --- |
| SAA1 | 1 | 0 |
| LOC153959 | 1 | 0 |
| WIPF1 | 1 | 0 |
| LINC02875 | 1 | 1 |
| TNRC6C | 1 | 0 |
| SCNN1G | 1 | 0 |
| GABBR1 | 1 | 0 |
| NXPE4 | 1 | 0 |
| SARS2 | 1 | 1 |
| IWS1 | 1 | 0 |
| ZNF329 | 1 | 0 |
| RBM19 | 1 | 0 |
| AGFG1 | 1 | 1 |
| LOC442123 | 1 | 2 (active) |
| TK1 | 1 | 0 |
| CCR1 | 1 | 1 |
| MYCT1 | 1 | 0 |
| SLC12A6 | 1 | 0 |
| LOC399969 | 1 | 0 |
| TRIM32 | 1 | 1 |
| ETNK1 | 1 | 1 |

Part of the list above, set out differently.
gene,reagent no.,two-siRNA summed score (-2 to +2)
IWS1,1,0
ZNF329,1,0
RBM19,1,0
AGFG1,1,1
LOC442123,1,2 (active)
TK1,1,0
CCR1,1,1
MYCT1,1,0
SLC12A6,1,0

The list goes on:
| gene | reagent no. | two-siRNA summed score (-2 to +2) |
| --- | --- | --- |
| KIR2DS4 | 1 | 1 |
| IL17RD | 1 | -1 |
| HERC2P2 | 1 | 0 |
| HELQ | 1 | 1 |
| GPR65 | 1 | 0 |
| LINC02898 | 1 | 1 |
| MTA1 | 1 | 0 |
| SEMA7A | 1 | 0 |
| SPTB | 1 | 0 |
| MPHOSPH10 | 1 | 1 |
| DOCK7 | 1 | 0 |
| CARD8 | 1 | -1 |
| FUOM | 1 | 0 |
| CEBPB | 1 | 0 |
| NFE2 | 1 | 0 |
| STK40 | 1 | 0 |
| LOC389347 | 1 | 1 |
| N4BP2L2 | 1 | 0 |
| N4BP2L2 | 2 | 0 |
| DDX50 | 1 | 1 |
| ITGA2 | 1 | 0 |
| LINC02028 | 1 | 0 |
| KRT76 | 1 | 0 |
| LOC339692 | 1 | 0 |
| SRI | 1 | 0 |
| SPO11 | 1 | 0 |
| OR10G8 | 1 | 1 |
| UBE2M | 1 | 0 |
| LOC389330 | 1 | 1 |
| ARL2BP | 1 | 1 |
| LOC441269 | 1 | 0 |
| NPW | 1 | 0 |
| LOC440372 | 1 | -1 |
| RPUSD2 | 1 | -1 |
| LOC440576 | 1 | 0 |
| KLHL10 | 1 | 0 |
